Measured values reported in the supplement of paper PMC8728848.
This is one part of the list.

What was measured:
Assay in all cases: glycan array binding signal (z-score within array); higher = stronger binding
Details in all cases: glycan notation: IUPAC condensed, linker removed
[1] = molecular target: Gal(b1-3)GlcNAc(b1-2)Man(a1-3)[Gal(b1-3)GlcNAc(b1-2)Man(a1-6)]Man(b1-4)GlcNAc(b1-4)GlcNAc
Procedure, shortened: (§1)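 Glycan array data came from 3228 arrays in the Consortium for Functional Glycomics database, and only arrays with an available protein sequence were kept. Glycan names were put into IUPAC-condensed notation, and columns mapping to the same glycan were averaged. The binding signal is a within-array Z-score, averaged across arrays of one protein sequence run at different concentrations or buffers and across linkers. A negative Z-score can be read as non-binding.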

[2] = molecular target: Gal(b1-3)GlcNAc(b1-2)Man(a1-3)[Gal(b1-3)GlcNAc(b1-2)Man(a1-6)]Man(b1-4)GlcNAc(b1-4)[Fuc(a1-6)]GlcNAc
Procedure, shortened: as §1

[3] = molecular target: Gal(b1-3)GlcNAc(b1-2)Man(a1-3)[GlcNAc(b1-4)][Gal(b1-3)GlcNAc(b1-2)Man(a1-6)]Man(b1-4)GlcNAc(b1-4)GlcNAc
Procedure, shortened: as §1

[4] = molecular target: Gal(b1-3)GlcNAc(b1-2)[Gal(b1-3)GlcNAc(b1-6)]Man(a1-6)[Gal(b1-3)GlcNAc(b1-2)Man(a1-3)]Man(b1-4)GlcNAc(b1-4)GlcNAc
Procedure, shortened: as §1

[5] = molecular target: Gal(b1-3)GlcNAc(b1-3)Gal(b1-3)GlcNAc
Procedure, shortened: as §1

[6] = molecular target: Gal(b1-3)GlcNAc(b1-3)Gal(b1-4)Glc
Procedure, shortened: as §1

[7] = molecular target: Gal(b1-3)GlcNAc(b1-3)Gal(b1-4)GlcNAc
Procedure, shortened: as §1

[8] = molecular target: Gal(b1-3)GlcNAc(b1-3)Gal(b1-4)GlcNAc(b1-2)Man(a1-3)[Gal(b1-3)GlcNAc(b1-3)Gal(b1-4)GlcNAc(b1-2)Man(a1-6)]Man(b1-4)GlcNAc(b1-4)GlcNAc
Procedure, shortened: as §1

[9] = molecular target: Gal(b1-3)GlcNAc(b1-3)Gal(b1-4)GlcNAc(b1-2)[Gal(b1-3)GlcNAc(b1-3)Gal(b1-4)GlcNAc(b1-6)]Man(a1-6)[Gal(b1-3)GlcNAc(b1-3)Gal(b1-4)GlcNAc(b1-2)Man(a1-3)]Man(b1-4)GlcNAc(b1-4)[Fuc(a1-6)]GlcNAc
Procedure, shortened: as §1

[10] = molecular target: Gal(b1-3)GlcNAc(b1-3)Gal(b1-4)GlcNAc(b1-3)Gal(b1-4)GlcNAc(b1-2)[Gal(b1-3)GlcNAc(b1-3)Gal(b1-4)GlcNAc(b1-3)Gal(b1-4)GlcNAc(b1-6)]Man(a1-6)[Gal(b1-3)GlcNAc(b1-3)Gal(b1-4)GlcNAc(b1-3)Gal(b1-4)GlcNAc(b1-2)Man(a1-3)]Man(b1-4)GlcNAc(b1-4)[Fuc(a1-6)]GlcNAc
Procedure, shortened: as §1

[11] = molecular target: Gal(b1-3)GlcNAc(b1-3)Gal(b1-4)GlcNAc(b1-6)[Gal(b1-3)GlcNAc(b1-3)]Gal(b1-4)Glc
Procedure, shortened: as §1

[12] = molecular target: Gal(b1-3)GlcNAc(b1-3)Gal(b1-4)[Fuc(a1-3)]GlcNAc
Procedure, shortened: as §1

[13] = molecular target: Gal(b1-3)GlcNAc(b1-3)Gal(b1-4)[Fuc(a1-3)]GlcNAc(b1-6)[Gal(b1-3)GlcNAc(b1-3)]Gal(b1-4)Glc
Procedure, shortened: as §1

[14] = molecular target: Gal(b1-3)GlcNAc(b1-3)GalNAc
Procedure, shortened: as §1

[15] = molecular target: Gal(b1-3)GlcNAc(b1-6)Gal(b1-4)GlcNAc
Procedure, shortened: as §1

[16] = molecular target: Gal(b1-3)GlcNAc(b1-6)GalNAc
Procedure, shortened: as §1

[17] = molecular target: Gal(b1-3)GlcNAc(b1-6)[Gal(b1-3)]GalNAc
Procedure, shortened: as §1

Gal(b1-3)GlcNAc6S = molecular target: Gal(b1-3)GlcNAc6S
Procedure, shortened: as §1

[18] = molecular target: Gal(b1-3)[Fuc(a1-4)]GlcNAc
Procedure, shortened: as §1

[19] = molecular target: Gal(b1-3)[Fuc(a1-4)]GlcNAc(b1-2)Man
Procedure, shortened: as §1

[20] = molecular target: Gal(b1-3)[Fuc(a1-4)]GlcNAc(b1-2)Man(a1-3)[Gal(b1-3)[Fuc(a1-4)]GlcNAc(b1-2)Man(a1-6)]Man(b1-4)GlcNAc(b1-4)[Fuc(a1-6)]GlcNAc
Procedure, shortened: as §1

[21] = molecular target: Gal(b1-3)[Fuc(a1-4)]GlcNAc(b1-3)Gal(b1-3)[Fuc(a1-4)]GlcNAc
Procedure, shortened: as §1

[22] = molecular target: Gal(b1-3)[Fuc(a1-4)]GlcNAc(b1-3)Gal(b1-4)[Fuc(a1-3)]GlcNAc
Procedure, shortened: as §1

[23] = molecular target: Gal(b1-3)[Fuc(a1-4)]GlcNAc(b1-6)GalNAc
Procedure, shortened: as §1

[24] = molecular target: Gal(b1-3)[GlcNAc(b1-6)]GalNAc
Procedure, shortened: as §1

[25] = molecular target: Gal(b1-3)[Neu5Ac(a2-6)]GalNAc
Procedure, shortened: as §1

[26] = molecular target: Gal(b1-3)[Neu5Ac(a2-6)]GlcNAc(b1-4)Gal(b1-4)Glc
Procedure, shortened: as §1

[27] = molecular target: Gal(b1-3)[Neu5Ac(b2-6)]GalNAc
Procedure, shortened: as §1

Gal(b1-4)Gal = molecular target: Gal(b1-4)Gal
Procedure, shortened: as §1

[28] = molecular target: Gal(b1-4)GalNAc(a1-3)[Fuc(a1-2)]Gal(b1-4)GlcNAc
Procedure, shortened: as §1

[29] = molecular target: Gal(b1-4)GalNAc(b1-3)[Fuc(a1-2)]Gal(b1-4)GlcNAc
Procedure, shortened: as §1

Gal(b1-4)Glc = molecular target: Gal(b1-4)Glc
Procedure, shortened: as §1

Gal(b1-4)Glc6S = molecular target: Gal(b1-4)Glc6S
Procedure, shortened: as §1

Gal(b1-4)GlcNAc = molecular target: Gal(b1-4)GlcNAc
Procedure, shortened: as §1

[30] = molecular target: Gal(b1-4)GlcNAc(a1-6)Gal(b1-4)GlcNAc
Procedure, shortened: as §1

Gal(b1-4)GlcNAc(b1-2)Man = molecular target: Gal(b1-4)GlcNAc(b1-2)Man
Procedure, shortened: as §1

[31] = molecular target: Gal(b1-4)GlcNAc(b1-2)Man(a1-3)Man(b1-4)GlcNAc(b1-4)GlcNAc
Procedure, shortened: as §1

[32] = molecular target: Gal(b1-4)GlcNAc(b1-2)Man(a1-3)[Gal(b1-4)GlcNAc(b1-2)Man(a1-6)]Man(b1-4)GlcNAc(b1-4)GlcNAc
Procedure, shortened: as §1

[33] = molecular target: Gal(b1-4)GlcNAc(b1-2)Man(a1-3)[Gal(b1-4)GlcNAc(b1-2)Man(a1-6)]Man(b1-4)GlcNAc(b1-4)[Fuc(a1-6)]GlcNAc
Procedure, shortened: as §1

[34] = molecular target: Gal(b1-4)GlcNAc(b1-2)Man(a1-3)[Gal(b1-4)GlcNAc(b1-2)Man(a1-6)][Gal(b1-4)GlcNAc(b1-4)]Man(b1-4)GlcNAc(b1-4)[Fuc(a1-6)]GlcNAc
Procedure, shortened: as §1

[35] = molecular target: Gal(b1-4)GlcNAc(b1-2)Man(a1-3)[Gal(b1-4)GlcNAc(b1-2)Man(a1-6)][GlcNAc(b1-4)]Man(b1-4)GlcNAc(b1-4)[Fuc(a1-6)]GlcNAc
Procedure, shortened: as §1

[36] = molecular target: Gal(b1-4)GlcNAc(b1-2)Man(a1-3)[GlcNAc(b1-2)Man(a1-6)]Man(b1-4)GlcNAc(b1-4)GlcNAc
Procedure, shortened: as §1

[37] = molecular target: Gal(b1-4)GlcNAc(b1-2)Man(a1-3)[GlcNAc(b1-4)][Gal(b1-4)GlcNAc(b1-2)Man(a1-6)]Man(b1-4)GlcNAc(b1-4)GlcNAc
Procedure, shortened: as §1

[38] = molecular target: Gal(b1-4)GlcNAc(b1-2)Man(a1-3)[Man(a1-6)]Man(b1-4)GlcNAc(b1-4)GlcNAc
Procedure, shortened: as §1

[39] = molecular target: Gal(b1-4)GlcNAc(b1-2)Man(a1-6)Man(b1-4)GlcNAc(b1-4)GlcNAc
Procedure, shortened: as §1

B1: Drgal1 (Danio rerio) (protein)
chain: MAGVLIQNMSFKVGQTLTITGVPKPDSTNFAINIGHSPEDIALHMNPRFDAHGDQCTIVCNSFQSGSWCEEHRDDNFPFIQDKEFQIKITFTNEEFLVTLPDGSEIHFPNRQGSEKYKYMYFEGEVRIQGVEIK
- glycan array binding signal (z-score) [1]: 0.307
- glycan array binding signal (z-score) [2]: 0.812
- glycan array binding signal (z-score) [3]: 0.809
- glycan array binding signal (z-score) [4]: -0.31
- glycan array binding signal (z-score) [5]: -0.171
- glycan array binding signal (z-score) [6]: 0.615
- glycan array binding signal (z-score) [7]: -0.798
- glycan array binding signal (z-score) [8]: 0.325
- glycan array binding signal (z-score) [9]: 0.56
- glycan array binding signal (z-score) [10]: 0.562
- glycan array binding signal (z-score) [11]: 1.9
- glycan array binding signal (z-score) [12]: 0.199
- glycan array binding signal (z-score) [13]: 0.66
- glycan array binding signal (z-score) [14]: 0.078
- glycan array binding signal (z-score) [15]: 0.115
- glycan array binding signal (z-score) [16]: -0.544
- glycan array binding signal (z-score) [17]: -0.228
- glycan array binding signal (z-score) (Gal(b1-3)GlcNAc6S): -0.268
- glycan array binding signal (z-score) [18]: -0.253
- glycan array binding signal (z-score) [19]: 0.89
- glycan array binding signal (z-score) [20]: 0.201
- glycan array binding signal (z-score) [21]: -0.645
- glycan array binding signal (z-score) [22]: 0.77
- glycan array binding signal (z-score) [23]: -0.443
- glycan array binding signal (z-score) [24]: 0.255
- glycan array binding signal (z-score) [25]: -0.745
- glycan array binding signal (z-score) [26]: -0.395
- glycan array binding signal (z-score) [27]: -0.043
- glycan array binding signal (z-score) (Gal(b1-4)Gal): -0.066
- glycan array binding signal (z-score) [28]: 0.068
- glycan array binding signal (z-score) [29]: -0.588
- glycan array binding signal (z-score) (Gal(b1-4)Glc): -0.435
- glycan array binding signal (z-score) (Gal(b1-4)Glc6S): -0.192
- glycan array binding signal (z-score) (Gal(b1-4)GlcNAc): -0.448
- glycan array binding signal (z-score) [30]: 0.244
- glycan array binding signal (z-score) (Gal(b1-4)GlcNAc(b1-2)Man): 0.071
- glycan array binding signal (z-score) [31]: 0.231
- glycan array binding signal (z-score) [32]: 0.021
- glycan array binding signal (z-score) [33]: 0.385
- glycan array binding signal (z-score) [34]: -0.219
- glycan array binding signal (z-score) [35]: -0.087
- glycan array binding signal (z-score) [36]: -0.092
- glycan array binding signal (z-score) [37]: -0.088
- glycan array binding signal (z-score) [38]: 0.544
- glycan array binding signal (z-score) [39]: -0.388
